One substance from publication PMC5725119 can be followed below.

The chains behind the UniProt entries cited, without tags or fusion partners.
UniProt Q8VIM5: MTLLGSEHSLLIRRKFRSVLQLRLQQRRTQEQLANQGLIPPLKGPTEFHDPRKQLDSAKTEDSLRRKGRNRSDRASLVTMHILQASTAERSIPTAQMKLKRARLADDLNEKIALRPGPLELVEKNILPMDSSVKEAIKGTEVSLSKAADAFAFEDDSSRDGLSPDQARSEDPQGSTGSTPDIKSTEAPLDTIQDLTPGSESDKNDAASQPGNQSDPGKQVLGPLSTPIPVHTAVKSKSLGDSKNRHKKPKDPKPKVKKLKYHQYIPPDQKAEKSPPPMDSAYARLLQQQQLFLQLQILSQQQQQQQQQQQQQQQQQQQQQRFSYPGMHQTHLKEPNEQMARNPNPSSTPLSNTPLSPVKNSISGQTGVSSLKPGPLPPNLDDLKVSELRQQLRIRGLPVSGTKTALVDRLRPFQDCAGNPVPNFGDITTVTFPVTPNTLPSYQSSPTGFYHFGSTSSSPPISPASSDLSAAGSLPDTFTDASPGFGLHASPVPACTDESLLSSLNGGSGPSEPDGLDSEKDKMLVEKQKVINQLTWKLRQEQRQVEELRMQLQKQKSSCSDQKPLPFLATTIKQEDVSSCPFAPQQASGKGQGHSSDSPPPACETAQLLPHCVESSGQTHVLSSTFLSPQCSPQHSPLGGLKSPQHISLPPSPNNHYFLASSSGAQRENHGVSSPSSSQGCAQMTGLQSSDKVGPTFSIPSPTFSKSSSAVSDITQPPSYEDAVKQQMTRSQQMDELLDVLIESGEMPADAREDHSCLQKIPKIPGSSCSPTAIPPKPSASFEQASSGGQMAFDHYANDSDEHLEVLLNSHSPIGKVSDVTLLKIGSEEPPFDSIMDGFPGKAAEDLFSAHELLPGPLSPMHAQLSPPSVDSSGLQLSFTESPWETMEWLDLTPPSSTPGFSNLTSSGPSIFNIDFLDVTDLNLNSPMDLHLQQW
UniProt P42227: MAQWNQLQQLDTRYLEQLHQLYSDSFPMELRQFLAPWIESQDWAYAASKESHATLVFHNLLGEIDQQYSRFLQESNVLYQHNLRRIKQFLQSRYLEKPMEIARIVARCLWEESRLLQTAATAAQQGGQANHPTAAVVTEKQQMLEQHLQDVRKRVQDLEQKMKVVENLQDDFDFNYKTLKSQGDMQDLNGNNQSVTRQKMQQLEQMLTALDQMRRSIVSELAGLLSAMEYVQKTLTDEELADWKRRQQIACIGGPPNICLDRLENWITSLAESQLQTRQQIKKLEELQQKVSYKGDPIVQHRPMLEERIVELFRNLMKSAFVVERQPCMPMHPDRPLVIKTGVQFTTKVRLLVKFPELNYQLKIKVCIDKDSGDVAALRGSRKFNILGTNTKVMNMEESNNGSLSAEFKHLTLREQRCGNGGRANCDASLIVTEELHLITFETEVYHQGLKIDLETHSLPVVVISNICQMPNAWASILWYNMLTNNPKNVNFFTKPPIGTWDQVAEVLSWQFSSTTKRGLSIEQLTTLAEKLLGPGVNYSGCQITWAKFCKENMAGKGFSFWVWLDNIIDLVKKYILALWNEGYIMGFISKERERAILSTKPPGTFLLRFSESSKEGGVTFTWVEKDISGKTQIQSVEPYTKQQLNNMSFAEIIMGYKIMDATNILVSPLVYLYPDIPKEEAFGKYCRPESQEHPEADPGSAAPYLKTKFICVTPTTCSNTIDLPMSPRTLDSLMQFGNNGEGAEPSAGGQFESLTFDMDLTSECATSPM

The assay addresses myc-tagged Myocardin (full-length mouse Myocardin) (mouse) (UniProt Q8VIM5). Briefly: co-IP; myc-Myocardin and flag-Stat3 cotransfected into rat cardiomyocytes; lysates precipitated with myc antibody and with flag antibody, SDS-PAGE, blots probed with myc and flag antibodies.

No constants are given. Whether binding was seen depends on the method and setting. In cells and extracts the contact can be indirect. Some binding calls cover weakened binding; strength is not graded here.

On to “flag-tagged Stat3 (full-length mouse Signal transducer and activator of transcription 3) (from UniProt P42227 1-770)”, for which the binding result is on record as “binds”.
